In patent publication US20050002904A1, “Uses of vascular endothelial growth factor and type I collagen inducible protein (VCIP)” (priority 2003, published 2005):
These are yes or no findings as the source states them, for the method shown. In cells and extracts the contact can be indirect. Some binding calls cover weakened binding; strength is not graded here.

Chains of the proteins cited; added tags and fusions are not shown. Lines headed by an entry give the natural chain unless they say otherwise; changes in a name come on top.
UniProt O14495: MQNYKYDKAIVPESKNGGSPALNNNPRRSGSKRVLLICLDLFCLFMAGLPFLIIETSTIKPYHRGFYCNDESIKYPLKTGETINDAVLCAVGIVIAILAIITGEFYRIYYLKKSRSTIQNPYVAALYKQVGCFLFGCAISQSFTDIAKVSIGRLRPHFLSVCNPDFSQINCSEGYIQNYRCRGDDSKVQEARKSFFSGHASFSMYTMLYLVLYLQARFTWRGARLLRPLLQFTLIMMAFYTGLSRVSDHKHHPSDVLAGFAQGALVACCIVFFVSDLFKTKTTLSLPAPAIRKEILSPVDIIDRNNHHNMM

Experiments:
p120catenin (human) [1] = target: T1, p120catenin (human) (UniProt O60716); test: reciprocal co-immunoprecipitation from E-cadherin deficient SW480 cells stably expressing WT-PAP2b
T1 sequence (looked up): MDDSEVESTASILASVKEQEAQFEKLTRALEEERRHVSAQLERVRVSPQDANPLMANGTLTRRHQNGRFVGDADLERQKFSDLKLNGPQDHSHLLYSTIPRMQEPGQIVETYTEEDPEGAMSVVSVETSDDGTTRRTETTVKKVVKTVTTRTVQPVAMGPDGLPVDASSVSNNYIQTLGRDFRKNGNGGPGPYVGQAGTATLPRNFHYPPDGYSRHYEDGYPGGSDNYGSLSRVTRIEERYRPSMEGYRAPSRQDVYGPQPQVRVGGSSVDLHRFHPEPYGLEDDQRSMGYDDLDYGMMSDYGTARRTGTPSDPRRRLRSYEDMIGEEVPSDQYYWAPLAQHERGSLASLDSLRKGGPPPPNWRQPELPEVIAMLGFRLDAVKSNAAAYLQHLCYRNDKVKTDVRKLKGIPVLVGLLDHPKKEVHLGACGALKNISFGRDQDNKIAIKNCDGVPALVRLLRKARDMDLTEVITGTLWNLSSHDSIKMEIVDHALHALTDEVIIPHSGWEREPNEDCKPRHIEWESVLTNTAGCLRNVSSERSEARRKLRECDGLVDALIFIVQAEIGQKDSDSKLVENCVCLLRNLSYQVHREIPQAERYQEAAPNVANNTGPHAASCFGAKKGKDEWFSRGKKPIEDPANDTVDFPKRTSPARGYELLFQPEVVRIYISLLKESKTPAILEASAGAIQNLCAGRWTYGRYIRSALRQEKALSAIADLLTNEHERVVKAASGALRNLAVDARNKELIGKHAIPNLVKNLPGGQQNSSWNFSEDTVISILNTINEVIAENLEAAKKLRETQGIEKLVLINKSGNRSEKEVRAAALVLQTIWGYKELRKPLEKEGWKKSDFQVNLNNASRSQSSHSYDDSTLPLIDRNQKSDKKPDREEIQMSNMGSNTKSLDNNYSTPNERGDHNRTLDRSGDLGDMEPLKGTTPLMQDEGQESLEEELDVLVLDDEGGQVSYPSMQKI

p120catenin (human) [2] = target: T1, p120catenin (human); test: co-immunoprecipitation from SW480 lysate immunodepleted with anti-pan-cadherin mAb
p120catenin (human) [3] = target: T1, p120catenin (human); test: co-immunoprecipitation and far-western, endothelial cells
p120catenin (human) [4] = target: T1, p120catenin (human); test: anti-HA co-immunoprecipitation from infected endothelial cells, anti-p120 catenin blot
p120catenin (human) [5] = target: T1, p120catenin (human); test: co-immunoprecipitation and western blot, HUVECs and SW480 cells
p120catenin (human) [6] = target: T1, p120catenin (human); test: reciprocal co-immunoprecipitation from HUVECs infected with full length PAP2b (WT), western blot

Measured: binding

wild-type VCIP/PAP2b, HA-tagged, expressed from pLNCX2-VCIP-RGD (from UniProt O14495 1-311)
binds: all assays above
